In article PMC4202161:
Results are given in words; binding and its absence hold for the method and conditions named. Binding seen in cells or lysates may run through a third protein. Some binding calls cover weakened binding; strength is not graded here.

Chains of the proteins cited; added tags and fusions are not shown. Residues count along the entry.
UniProt P35869, residues 11-848: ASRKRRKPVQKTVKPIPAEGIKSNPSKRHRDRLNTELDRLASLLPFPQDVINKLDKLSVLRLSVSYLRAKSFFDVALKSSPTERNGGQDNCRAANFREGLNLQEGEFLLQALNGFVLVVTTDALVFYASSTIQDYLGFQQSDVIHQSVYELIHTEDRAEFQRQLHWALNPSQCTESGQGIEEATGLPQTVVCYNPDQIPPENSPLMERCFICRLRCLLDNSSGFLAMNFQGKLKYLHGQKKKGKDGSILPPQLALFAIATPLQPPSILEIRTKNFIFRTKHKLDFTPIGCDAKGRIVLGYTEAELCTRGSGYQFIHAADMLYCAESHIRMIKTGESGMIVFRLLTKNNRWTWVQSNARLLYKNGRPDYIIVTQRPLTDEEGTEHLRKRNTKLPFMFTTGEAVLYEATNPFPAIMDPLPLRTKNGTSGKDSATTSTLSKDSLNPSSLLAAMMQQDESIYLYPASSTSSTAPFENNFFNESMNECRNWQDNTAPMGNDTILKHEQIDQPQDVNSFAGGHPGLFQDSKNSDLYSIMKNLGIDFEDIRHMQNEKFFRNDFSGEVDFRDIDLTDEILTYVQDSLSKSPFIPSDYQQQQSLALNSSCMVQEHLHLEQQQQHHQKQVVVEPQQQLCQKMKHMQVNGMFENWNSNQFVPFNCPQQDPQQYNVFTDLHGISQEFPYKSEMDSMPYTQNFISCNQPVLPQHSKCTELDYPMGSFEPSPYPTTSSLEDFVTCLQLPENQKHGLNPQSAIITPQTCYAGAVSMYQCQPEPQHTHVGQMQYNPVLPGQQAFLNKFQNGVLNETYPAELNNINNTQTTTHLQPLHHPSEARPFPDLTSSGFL

Target: T1, Calpain-10 (human (endogenous in AGS)) (UniProt Q9HC96)
T1 sequence: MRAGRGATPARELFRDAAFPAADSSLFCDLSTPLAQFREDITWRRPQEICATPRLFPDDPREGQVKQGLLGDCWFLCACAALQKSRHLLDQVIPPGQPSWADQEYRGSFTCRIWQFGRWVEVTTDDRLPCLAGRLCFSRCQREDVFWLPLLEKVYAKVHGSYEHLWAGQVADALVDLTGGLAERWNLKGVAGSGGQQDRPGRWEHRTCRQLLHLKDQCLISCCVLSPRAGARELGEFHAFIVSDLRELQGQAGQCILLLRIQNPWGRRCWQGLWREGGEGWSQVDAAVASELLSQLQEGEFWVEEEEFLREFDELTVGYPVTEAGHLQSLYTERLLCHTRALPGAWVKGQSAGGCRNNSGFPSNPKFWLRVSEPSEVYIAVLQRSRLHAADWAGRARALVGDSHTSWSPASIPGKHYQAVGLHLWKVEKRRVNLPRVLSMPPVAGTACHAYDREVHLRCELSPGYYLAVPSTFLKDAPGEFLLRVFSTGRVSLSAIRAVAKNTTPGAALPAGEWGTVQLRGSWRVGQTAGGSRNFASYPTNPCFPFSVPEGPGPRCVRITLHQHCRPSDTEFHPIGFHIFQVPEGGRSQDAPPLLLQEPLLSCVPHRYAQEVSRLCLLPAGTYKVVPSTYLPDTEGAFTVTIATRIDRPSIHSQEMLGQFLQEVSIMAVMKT
Experiment: co-IP; AGS cells treated with or without Biseugenol (40 μM) for 4, 8 or 10 h; Calpain-10 immunoprecipitated by anti-Calpain-10 antibody from cell lysates; immunoblot probed for AhR and Calpain-10

## Aryl hydrocarbon receptor (from UniProt P35869 11-848)
  binding: binds
